In US20160368879A1, “PHOTOACID GENERATOR, AND RESIN COMPOSITION FOR PHOTOLITHOGRAPHY” (SAN-APRO LTD., priority 2013, published 2016):
Some of these results come from one statement about several compounds together.

Test: Solvent solubility (butyl acetate, toluene or PGMEA)
Assay type: physicochemical
Details: summary of Tables 4 to 6
Protocol: In a test tube, 0.1 g of the synthesized photoacid generator was placed, and an organic solvent (butyl acetate, toluene or PGMEA) was added thereto in 0.2 g portions under a condition where the temperature was adjusted to 25° C. until the photoacid generator was completely dissolved. In this connection, in the case where the photoacid generator was not completely dissolved even when 20 g of the solvent was added, the photoacid generator was evaluated as one that was not dissolved.

Solubility to a solvent (in words), especially excellent:
C[Si](C)(C)c1ccc2c3c(cccc13)C(=O)N(OS(=O)(=O)c1c(F)c(F)c(F)c(F)c1F)C2=O [Example A-38, 4-trimethylsilyl-1,8-naphthalimide pentafluorobenzenesulfonate]
O=C1c2cccc3c(C(F)(F)C(F)(F)C(F)(F)C(F)(F)F)ccc(c23)C(=O)N1OS(=O)(=O)C(F)(F)F [Example A-16, 4-(nonafluorobutyl)-1,8-naphthalimide trifluoromethanesulfonate]
CC1(C)C2CCC1(CS(=O)(=O)ON1C(=O)c3cccc4c(Oc5c(F)c(F)c(F)c(F)c5F)ccc(c34)C1=O)C(=O)C2 (stereo not drawn) [Example A-45, 4-pentafluorophenoxy-1,8-naphthalimide-(+)-10-camphorsulfonate]
COc1cc2c3c(cccc3c1)C(=O)N(OS(=O)(=O)C[C@]13CCC(CC1=O)C3(C)C)C2=O [Example A-48, 3-methoxy-1,8-naphthalimide-(+)-10-camphorsulfonate]
C[Si](C)(C)c1ccc2c3c(cccc13)C(=O)N(OS(=O)(=O)C(F)(F)F)C2=O [Example A-18, 4-trimethylsilyl-1,8-naphthalimide trifluoromethanesulfonate]
O=C(Oc1cc2c3c(cccc3c1)C(=O)N(OS(=O)(=O)C(F)(F)F)C2=O)c1ccccc1 [Example A-11, 3-benzoyloxy-1,8-naphthalimide trifluoromethanesulfonate]
O=C1c2cccc3c(OCC(F)(F)C(F)F)ccc(c23)C(=O)N1OS(=O)(=O)c1c(F)c(F)c(F)c(F)c1F [Example A-23, 4-(2,2,3,3-tetrafluoro-1-propoxy)-1,8-naphthalimide pentafluorobenzenesulfonate]
CC1(C)[C@@H]2CC[C@@]1(CS(=O)(=O)ON1C(=O)c3cccc4c([Si](C)(C)C)ccc(c34)C1=O)C(=O)C2 [Example A-58, 4-trimethylsilyl-1,8-naphthalimide-(+)-10-camphorsulfonate]
O=C1c2cccc3c(Oc4c(F)c(F)c(F)c(F)c4F)ccc(c23)C(=O)N1OS(=O)(=O)C(F)(F)F [Example A-5, 4-pentafluorophenoxy-1,8-naphthalimide trifluoromethanesulfonate]
COc1cc2c3c(cccc3c1)C(=O)N(OS(=O)(=O)c1c(F)c(F)c(F)c(F)c1F)C2=O [Example A-28, 3-methoxy-1,8-naphthalimide pentafluorobenzenesulfonate]
CCCCC(CC)C(=O)Oc1cc2c3c(cccc3c1)C(=O)N(OS(=O)(=O)CC13CCC(CC1=O)C3(C)C)C2=O (stereo not drawn) [Example A-49, 3-(2-ethylhexanoyloxy)-1,8-naphthalimide-(+)-10-camphorsulfonate]
CC1(C)C2CC[C@@]1(CS(=O)(=O)ON1C(=O)c3cccc4cc(OC(=O)c5c(F)c(F)c(F)c(F)c5F)cc(c34)C1=O)C(=O)C2 [Example A-52, 3-pentafluorobenzoyloxy-1,8-naphthalimide-(+)-10-camphorsulfonate]
O=C1c2cccc3c(C(F)(F)C(F)(F)C(F)(F)C(F)(F)C(F)(F)C(F)(F)C(F)(F)C(F)(F)F)ccc(c23)C(=O)N1OS(=O)(=O)c1c(F)c(F)c(F)c(F)c1F [Example A-37, 4-(heptadecafluoro-n-octyl)-1,8-naphthalimide pentafluorobenzenesulfonate]
O=C(Oc1cc2c3c(cccc3c1)C(=O)N(OS(=O)(=O)c1c(F)c(F)c(F)c(F)c1F)C2=O)c1ccccc1 [Example A-31, 3-benzoyloxy-1,8-naphthalimide pentafluorobenzenesulfonate]
CCCCC(CC)C(=O)Oc1cc2c3c(cccc3c1)C(=O)N(OS(=O)(=O)c1c(F)c(F)c(F)c(F)c1F)C2=O (stereo not drawn) [Example A-29, 3-(2-ethylhexanoyloxy)-1,8-naphthalimide pentafluorobenzenesulfonate]
O=C1c2cccc3c(Oc4cccc(C(F)(F)F)c4)ccc(c23)C(=O)N1OS(=O)(=O)c1c(F)c(F)c(F)c(F)c1F [Example A-26, 4-(3-trifluoromethylphenoxy)-1,8-naphthalimide pentafluorobenzenesulfonate]
O=C(Oc1cc2c3c(cccc3c1)C(=O)N(OS(=O)(=O)C(F)(F)F)C2=O)c1c(F)c(F)c(F)c(F)c1F [Example A-12, 3-pentafluorobenzoyloxy-1,8-naphthalimide trifluoromethanesulfonate]
CCCCC(CC)C(=O)Oc1cc2c3c(cccc3c1)C(=O)N(OS(=O)(=O)C(F)(F)F)C2=O (stereo not drawn) [Example A-9, 3-(2-ethylhexanoyloxy)-1,8-naphthalimide trifluoromethanesulfonate]
O=C1c2cccc3c(C(F)(F)C(F)(F)C(F)(F)C(F)(F)F)ccc(c23)C(=O)N1OS(=O)(=O)c1c(F)c(F)c(F)c(F)c1F [Example A-36, 4-(nonafluorobutyl)-1,8-naphthalimide pentafluorobenzenesulfonate]
CCCC(=O)Oc1cc2c3c(cccc3c1)C(=O)N(OS(=O)(=O)C(F)(F)F)C2=O [Example A-10, 3-butyroyloxy-1,8-naphthalimide trifluoromethanesulfonate]
CC1(C)C2CCC1(CS(=O)(=O)ON1C(=O)c3cccc4c(Oc5cccc(C(F)(F)F)c5)ccc(c34)C1=O)C(=O)C2 (stereo not drawn) [Example A-46, 4-(3-trifluoromethylphenoxy)-1,8-naphthalimide-(+)-10-camphorsulfonate]
O=C1c2cccc3c(OCC(F)(F)C(F)F)ccc(c23)C(=O)N1OS(=O)(=O)C(F)(F)F [Example A-3, 4-(2,2,3,3-tetrafluoro-1-propoxy)-1,8-naphthalimide trifluoromethanesulfonate]
CCCC(=O)Oc1cc2c3c(cccc3c1)C(=O)N(OS(=O)(=O)c1c(F)c(F)c(F)c(F)c1F)C2=O [Example A-30, 3-butyroyloxy-1,8-naphthalimide pentafluorobenzenesulfonate]
O=C1c2cccc3c(C(F)(F)C(F)(F)C(F)(F)C(F)(F)C(F)(F)C(F)(F)C(F)(F)C(F)(F)F)ccc(c23)C(=O)N1OS(=O)(=O)C(F)(F)F [Example A-17, 4-(heptadecafluoro-n-octyl)-1,8-naphthalimide trifluoromethanesulfonate]
CCCC(=O)Oc1cc2c3c(cccc3c1)C(=O)N(OS(=O)(=O)CC13CCC(CC1=O)C3(C)C)C2=O (stereo not drawn) [Example A-50, 3-butyroyloxy-1,8-naphthalimide-(+)-10-camphorsulfonate]
COc1cc2c3c(cccc3c1)C(=O)N(OS(=O)(=O)C(F)(F)F)C2=O [Example A-8, 3-methoxy-1,8-naphthalimide trifluoromethanesulfonate]
CC1(C)C2CC[C@@]1(CS(=O)(=O)ON1C(=O)c3cccc4cc(OC(=O)c5ccccc5)cc(c34)C1=O)C(=O)C2 [Example A-51, 3-benzoyloxy-1,8-naphthalimide-(+)-10-camphorsulfonate]
O=C(Oc1cc2c3c(cccc3c1)C(=O)N(OS(=O)(=O)c1c(F)c(F)c(F)c(F)c1F)C2=O)c1c(F)c(F)c(F)c(F)c1F [Example A-32, 3-pentafluorobenzoyloxy-1,8-naphthalimide pentafluorobenzenesulfonate]
O=C1c2cccc3c(Oc4c(F)c(F)c(F)c(F)c4F)ccc(c23)C(=O)N1OS(=O)(=O)c1c(F)c(F)c(F)c(F)c1F [Example A-25, 4-pentafluorophenoxy-1,8-naphthalimide pentafluorobenzenesulfonate]
CC1(C)C2CCC1(CS(=O)(=O)ON1C(=O)c3cccc4c(OCC(F)(F)C(F)F)ccc(c34)C1=O)C(=O)C2 (stereo not drawn) [Example A-43, 4-(2,2,3,3-tetrafluoro-1-propoxy)-1,8-naphthalimide-(+)-10-camphorsulfonate]
CC1(C)C2CCC1(CS(=O)(=O)ON1C(=O)c3cccc4c(C(F)(F)C(F)(F)C(F)(F)C(F)(F)C(F)(F)C(F)(F)C(F)(F)C(F)(F)F)ccc(c34)C1=O)C(=O)C2 (stereo not drawn) [Example A-57, 4-(heptadecafluoro-n-octyl)-1,8-naphthalimide-(+)-10-camphorsulfonate]
CC1(C)C2CCC1(CS(=O)(=O)ON1C(=O)c3cccc4c(C(F)(F)C(F)(F)C(F)(F)C(F)(F)F)ccc(c34)C1=O)C(=O)C2 (stereo not drawn) [Example A-56, 4-(nonafluorobutyl)-1,8-naphthalimide-(+)-10-camphorsulfonate]
O=C1c2cccc3c(Oc4cccc(C(F)(F)F)c4)ccc(c23)C(=O)N1OS(=O)(=O)C(F)(F)F [Example A-6, 4-(3-trifluoromethylphenoxy)-1,8-naphthalimide trifluoromethanesulfonate]
